# Assay results as given in the supplement of paper PMC12595434, “Development of retinoid nuclear receptor pathway antagonists through targeting aldehyde dehydrogenase 1A3” (iScience, 2025).
# Amino acid sequences for entries named in this document (tags omitted). A change or cut given only in a name is not applied to a line headed by its entry.
# UniProt P47985: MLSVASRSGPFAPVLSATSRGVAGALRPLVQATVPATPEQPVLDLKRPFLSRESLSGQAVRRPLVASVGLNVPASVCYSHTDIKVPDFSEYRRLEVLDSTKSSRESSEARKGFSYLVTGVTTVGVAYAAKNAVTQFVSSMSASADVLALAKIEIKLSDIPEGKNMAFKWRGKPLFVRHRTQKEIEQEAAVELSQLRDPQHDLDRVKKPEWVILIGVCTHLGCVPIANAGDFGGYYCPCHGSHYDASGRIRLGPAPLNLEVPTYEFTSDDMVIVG
# UniProt P41208: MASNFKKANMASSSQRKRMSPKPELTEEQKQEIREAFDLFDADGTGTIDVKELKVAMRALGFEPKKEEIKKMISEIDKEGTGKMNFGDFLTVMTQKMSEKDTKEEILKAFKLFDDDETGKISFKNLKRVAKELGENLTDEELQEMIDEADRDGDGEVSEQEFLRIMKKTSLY
# UniProt P51687: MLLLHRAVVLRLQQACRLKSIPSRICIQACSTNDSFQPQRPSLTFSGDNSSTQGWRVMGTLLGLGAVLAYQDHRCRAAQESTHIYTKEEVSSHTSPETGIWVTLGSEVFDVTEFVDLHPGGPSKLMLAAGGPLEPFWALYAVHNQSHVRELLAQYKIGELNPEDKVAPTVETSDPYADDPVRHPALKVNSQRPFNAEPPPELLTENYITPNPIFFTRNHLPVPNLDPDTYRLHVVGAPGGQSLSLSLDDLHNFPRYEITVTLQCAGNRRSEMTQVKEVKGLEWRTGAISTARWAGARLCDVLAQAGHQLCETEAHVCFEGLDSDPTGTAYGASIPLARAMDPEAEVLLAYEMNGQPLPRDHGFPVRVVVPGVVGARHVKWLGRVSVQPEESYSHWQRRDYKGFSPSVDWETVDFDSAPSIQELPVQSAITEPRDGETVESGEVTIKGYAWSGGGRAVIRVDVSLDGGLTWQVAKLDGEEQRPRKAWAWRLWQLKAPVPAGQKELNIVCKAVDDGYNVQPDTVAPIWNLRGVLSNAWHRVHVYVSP
# UniProt P51114, whole entry: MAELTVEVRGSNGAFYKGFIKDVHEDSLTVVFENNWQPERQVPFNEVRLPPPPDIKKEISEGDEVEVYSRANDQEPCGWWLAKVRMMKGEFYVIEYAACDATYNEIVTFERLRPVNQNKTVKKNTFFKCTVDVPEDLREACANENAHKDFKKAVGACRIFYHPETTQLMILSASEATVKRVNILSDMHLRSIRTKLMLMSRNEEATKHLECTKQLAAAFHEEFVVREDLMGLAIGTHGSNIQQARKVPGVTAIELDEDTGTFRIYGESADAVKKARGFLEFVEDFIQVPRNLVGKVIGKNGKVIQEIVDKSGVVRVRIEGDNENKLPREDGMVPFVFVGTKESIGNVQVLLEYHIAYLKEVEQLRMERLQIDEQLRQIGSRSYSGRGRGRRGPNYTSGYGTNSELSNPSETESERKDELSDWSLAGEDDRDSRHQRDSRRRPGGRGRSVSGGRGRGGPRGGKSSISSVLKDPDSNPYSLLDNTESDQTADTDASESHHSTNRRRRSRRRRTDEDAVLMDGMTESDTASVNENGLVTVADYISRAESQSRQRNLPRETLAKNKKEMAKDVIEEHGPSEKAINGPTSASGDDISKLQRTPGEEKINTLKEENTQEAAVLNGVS
# UniProt P51149, whole entry: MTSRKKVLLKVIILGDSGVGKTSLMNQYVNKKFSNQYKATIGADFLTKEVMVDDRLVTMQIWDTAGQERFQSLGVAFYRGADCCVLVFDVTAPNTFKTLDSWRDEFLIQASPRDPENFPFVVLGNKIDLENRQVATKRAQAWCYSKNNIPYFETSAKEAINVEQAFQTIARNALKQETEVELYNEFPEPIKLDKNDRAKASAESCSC
# UniProt P51151: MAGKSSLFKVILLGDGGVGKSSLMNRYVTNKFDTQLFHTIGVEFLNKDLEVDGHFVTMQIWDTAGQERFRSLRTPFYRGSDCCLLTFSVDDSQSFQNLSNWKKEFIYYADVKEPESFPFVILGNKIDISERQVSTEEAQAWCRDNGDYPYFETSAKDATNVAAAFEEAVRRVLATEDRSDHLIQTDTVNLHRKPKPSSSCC
# UniProt P51530: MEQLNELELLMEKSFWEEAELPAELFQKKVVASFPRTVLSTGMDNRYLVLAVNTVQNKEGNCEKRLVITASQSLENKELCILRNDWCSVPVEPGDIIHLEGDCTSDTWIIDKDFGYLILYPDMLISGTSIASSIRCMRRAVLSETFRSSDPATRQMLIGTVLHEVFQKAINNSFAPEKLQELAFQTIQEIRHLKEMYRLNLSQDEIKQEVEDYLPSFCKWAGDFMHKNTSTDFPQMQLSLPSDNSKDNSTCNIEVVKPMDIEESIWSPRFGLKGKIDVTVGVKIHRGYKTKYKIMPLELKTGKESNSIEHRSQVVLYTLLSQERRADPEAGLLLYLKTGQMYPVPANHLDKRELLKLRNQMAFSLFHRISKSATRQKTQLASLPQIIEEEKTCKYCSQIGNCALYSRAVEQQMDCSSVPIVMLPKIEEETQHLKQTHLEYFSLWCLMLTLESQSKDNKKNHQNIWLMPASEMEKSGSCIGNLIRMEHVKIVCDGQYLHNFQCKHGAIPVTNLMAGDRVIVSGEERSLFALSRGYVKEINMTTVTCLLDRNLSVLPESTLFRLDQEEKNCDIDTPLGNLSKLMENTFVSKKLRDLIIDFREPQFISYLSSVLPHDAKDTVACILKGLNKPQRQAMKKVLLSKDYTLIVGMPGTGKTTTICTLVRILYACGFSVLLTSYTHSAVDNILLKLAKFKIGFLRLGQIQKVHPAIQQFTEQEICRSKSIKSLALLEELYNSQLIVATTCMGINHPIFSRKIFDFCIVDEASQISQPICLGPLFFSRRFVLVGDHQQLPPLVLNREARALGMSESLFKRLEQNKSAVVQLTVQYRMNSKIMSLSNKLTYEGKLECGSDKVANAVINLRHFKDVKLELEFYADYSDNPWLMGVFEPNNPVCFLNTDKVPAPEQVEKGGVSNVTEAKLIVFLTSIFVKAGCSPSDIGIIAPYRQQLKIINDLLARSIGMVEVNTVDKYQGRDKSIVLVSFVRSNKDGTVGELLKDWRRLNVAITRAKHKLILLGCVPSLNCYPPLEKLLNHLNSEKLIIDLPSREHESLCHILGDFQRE
# UniProt P50395: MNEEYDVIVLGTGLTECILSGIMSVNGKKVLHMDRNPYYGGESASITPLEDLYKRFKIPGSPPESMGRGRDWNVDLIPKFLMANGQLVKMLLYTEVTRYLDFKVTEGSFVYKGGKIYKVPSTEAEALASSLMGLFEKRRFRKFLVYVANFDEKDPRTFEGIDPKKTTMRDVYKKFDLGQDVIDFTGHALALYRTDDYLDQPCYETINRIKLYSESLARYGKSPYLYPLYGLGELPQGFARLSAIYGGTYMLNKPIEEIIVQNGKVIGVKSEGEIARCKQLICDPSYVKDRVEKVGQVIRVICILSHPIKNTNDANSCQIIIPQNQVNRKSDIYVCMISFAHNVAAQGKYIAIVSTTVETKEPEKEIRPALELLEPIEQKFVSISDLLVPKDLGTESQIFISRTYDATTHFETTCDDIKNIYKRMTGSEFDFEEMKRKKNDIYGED
# UniProt P48454, whole entry: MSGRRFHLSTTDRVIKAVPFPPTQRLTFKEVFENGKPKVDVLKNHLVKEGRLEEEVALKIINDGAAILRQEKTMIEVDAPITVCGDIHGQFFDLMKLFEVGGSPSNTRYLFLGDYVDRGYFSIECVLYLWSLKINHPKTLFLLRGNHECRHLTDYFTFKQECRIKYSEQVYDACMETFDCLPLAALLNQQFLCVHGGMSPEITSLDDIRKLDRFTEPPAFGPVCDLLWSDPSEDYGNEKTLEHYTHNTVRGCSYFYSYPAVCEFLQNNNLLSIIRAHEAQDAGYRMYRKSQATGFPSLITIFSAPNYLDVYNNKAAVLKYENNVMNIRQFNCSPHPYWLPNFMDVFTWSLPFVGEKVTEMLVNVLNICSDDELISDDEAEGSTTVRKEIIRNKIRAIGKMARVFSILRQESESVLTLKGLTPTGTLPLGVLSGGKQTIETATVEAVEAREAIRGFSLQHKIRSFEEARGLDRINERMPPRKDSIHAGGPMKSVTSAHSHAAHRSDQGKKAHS
# UniProt P46087: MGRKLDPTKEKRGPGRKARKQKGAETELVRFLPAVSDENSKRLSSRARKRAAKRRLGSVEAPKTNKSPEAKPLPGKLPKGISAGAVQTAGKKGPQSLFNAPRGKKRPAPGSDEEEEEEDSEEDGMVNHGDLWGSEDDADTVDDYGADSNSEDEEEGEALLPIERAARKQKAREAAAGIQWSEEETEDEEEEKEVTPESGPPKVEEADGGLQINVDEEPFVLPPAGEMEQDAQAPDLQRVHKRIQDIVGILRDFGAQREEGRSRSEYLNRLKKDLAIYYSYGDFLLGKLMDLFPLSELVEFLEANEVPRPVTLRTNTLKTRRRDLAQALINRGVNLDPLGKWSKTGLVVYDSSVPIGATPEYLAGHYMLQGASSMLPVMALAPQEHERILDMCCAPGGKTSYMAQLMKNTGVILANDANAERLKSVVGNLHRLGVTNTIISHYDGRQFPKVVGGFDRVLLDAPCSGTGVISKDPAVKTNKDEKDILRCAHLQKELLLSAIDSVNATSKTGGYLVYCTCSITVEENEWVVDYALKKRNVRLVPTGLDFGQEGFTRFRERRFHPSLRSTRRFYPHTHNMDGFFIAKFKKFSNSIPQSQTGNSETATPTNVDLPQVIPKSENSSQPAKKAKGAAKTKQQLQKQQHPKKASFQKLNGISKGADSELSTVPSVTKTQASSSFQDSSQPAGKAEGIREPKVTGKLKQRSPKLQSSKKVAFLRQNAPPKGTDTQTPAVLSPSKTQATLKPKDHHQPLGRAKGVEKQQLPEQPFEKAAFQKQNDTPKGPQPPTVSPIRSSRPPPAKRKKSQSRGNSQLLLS
# UniProt P49674: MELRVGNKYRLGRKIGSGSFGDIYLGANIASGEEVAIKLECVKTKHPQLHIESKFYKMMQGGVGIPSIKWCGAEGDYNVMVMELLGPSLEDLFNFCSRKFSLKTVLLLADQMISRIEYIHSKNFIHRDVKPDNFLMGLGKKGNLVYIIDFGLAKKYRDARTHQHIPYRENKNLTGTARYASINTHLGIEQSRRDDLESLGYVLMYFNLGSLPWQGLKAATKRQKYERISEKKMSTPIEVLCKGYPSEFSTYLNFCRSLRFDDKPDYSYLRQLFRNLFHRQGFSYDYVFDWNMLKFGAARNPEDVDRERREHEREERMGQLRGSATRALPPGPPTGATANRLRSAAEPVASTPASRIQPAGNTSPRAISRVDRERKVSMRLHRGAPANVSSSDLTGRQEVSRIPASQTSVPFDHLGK
# UniProt P41134: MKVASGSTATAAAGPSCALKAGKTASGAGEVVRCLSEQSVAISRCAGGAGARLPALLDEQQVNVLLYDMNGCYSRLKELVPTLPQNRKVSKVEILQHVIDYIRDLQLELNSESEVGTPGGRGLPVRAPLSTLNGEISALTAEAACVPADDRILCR
# UniProt P51553: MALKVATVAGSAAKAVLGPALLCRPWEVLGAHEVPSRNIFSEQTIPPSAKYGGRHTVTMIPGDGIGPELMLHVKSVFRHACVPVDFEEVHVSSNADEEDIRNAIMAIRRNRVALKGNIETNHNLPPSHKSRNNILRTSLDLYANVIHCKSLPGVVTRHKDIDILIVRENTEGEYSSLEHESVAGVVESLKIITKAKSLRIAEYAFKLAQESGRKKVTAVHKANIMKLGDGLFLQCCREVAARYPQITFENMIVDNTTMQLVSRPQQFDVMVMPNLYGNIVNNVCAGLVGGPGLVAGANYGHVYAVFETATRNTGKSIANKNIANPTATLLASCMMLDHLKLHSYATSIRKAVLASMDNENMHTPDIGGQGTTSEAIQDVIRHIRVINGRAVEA
# UniProt P48506: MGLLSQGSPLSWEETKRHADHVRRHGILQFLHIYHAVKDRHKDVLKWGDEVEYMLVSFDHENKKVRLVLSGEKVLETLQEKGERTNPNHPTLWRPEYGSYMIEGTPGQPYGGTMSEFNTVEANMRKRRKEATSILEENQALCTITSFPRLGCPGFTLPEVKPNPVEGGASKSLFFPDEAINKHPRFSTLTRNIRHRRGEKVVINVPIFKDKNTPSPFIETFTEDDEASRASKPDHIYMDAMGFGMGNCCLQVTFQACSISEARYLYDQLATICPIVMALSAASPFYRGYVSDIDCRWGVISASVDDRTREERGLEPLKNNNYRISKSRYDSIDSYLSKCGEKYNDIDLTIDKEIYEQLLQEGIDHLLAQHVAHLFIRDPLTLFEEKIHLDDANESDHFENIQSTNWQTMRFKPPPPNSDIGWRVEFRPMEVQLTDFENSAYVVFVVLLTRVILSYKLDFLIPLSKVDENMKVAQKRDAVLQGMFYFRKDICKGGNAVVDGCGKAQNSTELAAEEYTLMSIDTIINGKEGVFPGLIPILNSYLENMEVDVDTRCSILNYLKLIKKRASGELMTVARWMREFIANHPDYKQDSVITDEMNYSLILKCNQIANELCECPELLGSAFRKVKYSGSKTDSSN
# UniProt P51161: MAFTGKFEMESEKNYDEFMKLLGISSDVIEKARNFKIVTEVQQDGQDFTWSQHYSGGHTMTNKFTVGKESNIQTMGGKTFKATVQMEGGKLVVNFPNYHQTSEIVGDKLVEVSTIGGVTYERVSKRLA
# This is one part of the list. Single values of this set are uncertain.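 Tm was set to 64 °C where no melting was found, and many curves are irregular.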
# Compound: CCc1cnccc1C(=O)Nc1cc2c(cc1F)NC(=O)CC2
# Test: melting temperature shift (DMSO Tm minus MBE1-treated Tm) in cellular thermal proteome profiling; higher = less thermal stabilization by MBE1 (negative = stabilized by MBE1)
# Settings: A375
Target,melting temperature shift (MBE1 concentration: 100 nM) [°C],melting temperature shift (MBE1 concentration: 1 uM) [°C]
UQCRFS1 (UniProt P47985),-1.53,-1.17
MTHFS (UniProt P49914),0.403,-0.0977
ETFB (UniProt P38117),-0.812,0.698
UniProt P42356,0.69,0.666
CETN2 (UniProt P41208),-10.3,-5.27
UniProt P48681,-1.68,-2.46
UniProt P37275,-1.03,0.0305
FXR2 (UniProt P51116),-0.828,-0.231
ECE1 (UniProt P42892),-2.18,0.452
PCYT1A (UniProt P49585),-0.952,-0.372
SUOX (UniProt P51687),-1.18,-0.557
FXR1 (UniProt P51114),-0.62,-0.212
ME1 (UniProt P48163),-1.8,-1.97
MSH2 (UniProt P43246),0.275,-0.0672
PAFAH1B1 (UniProt P43034),-0.953,0.0488
MAPKAPK2 (UniProt P49137),0.171,-0.0611
PIK3CB (UniProt P42338),1.15,0.867
RAB7A (UniProt P51149),-2.39,-1.96
UniProt P43363,-0.305,-0.318
PRIM1 (UniProt P49642),-1.15,0.0894
EMD (UniProt P50402),0.0244,-0.281
RAB9A (UniProt P51151),-1.99,0.812
DNA2 (UniProt P51530),-2.06,0.133
GCLM (UniProt P48507),-0.696,-0.35

# 3 neighbouring records from above, for reference:
Target,melting temperature shift (MBE1 concentration: 100 nM) [°C],melting temperature shift (MBE1 concentration: 1 uM) [°C]
UniProt P42356,0.69,0.666
CETN2 (UniProt P41208),-10.3,-5.27
UniProt P48681,-1.68,-2.46

# Later entries.

Target,melting temperature shift (MBE1 concentration: 100 nM) [°C],melting temperature shift (MBE1 concentration: 1 uM) [°C]
GDI2 (UniProt P50395),-0.728,0.342
STAT1 (UniProt P42224),-0.359,-0.256
MRPL19 (UniProt P49406),1.84,1.1
NASP (UniProt P49321),-0.281,-0.159
TXLNA (UniProt P40222),-0.698,0.0794
SNCA (UniProt P37840),-0.679,-1.54
RPL14 (UniProt P50914),-0.611,0.885
PIK3CA (UniProt P42336),-0.95,-0.39
UniProt P48029,-2.06,-1.14
MKI67 (UniProt P46013),-0.513,-0.673
ATP6V1A (UniProt P38606),0.482,0.8
UniProt P40425,-0.692,-0.39
ANXA11 (UniProt P50995),-0.243,-0.167
UniProt P48454,-0.873,1.98
NOP2 (UniProt P46087),-0.436,-0.0335
HARS2 (UniProt P49590),-0.262,0.765
KNTC1 (UniProt P50748),-0.127,-0.136
LMAN1 (UniProt P49257),-0.677,0.805
UniProt P49674,1.06,0.8
ID1 (UniProt P41134),-5.17,-2.07
IDH3G (UniProt P51553),-1.16,1.5
LIG3 (UniProt P49916),-0.0769,-0.397
UniProt P42677,0.0794,0.00611
TAGLN2 (UniProt P37802),-0.397,-0.055

Target,melting temperature shift (MBE1 concentration: 100 nM) [°C],melting temperature shift (MBE1 concentration: 1 uM) [°C]
RANBP1 (UniProt P43487),-0.714,-5.21
UniProt P51157,1.35,-0.934
UniProt P39880,0.806,0.244
IARS (UniProt P41252),-0.372,-0.343
SMARCA2 (UniProt P51531),-0.589,-0.596
UniProt P45983,-1.81,-0.997
RPL28 (UniProt P46779),-0.0611,0.159
GYG1 (UniProt P46976),-1.53,0.806
GALK1 (UniProt P51570),-0.443,0.221
GCLC (UniProt P48506),-0.607,0.0672
UniProt P51587,-0.916,0.513
DNM2 (UniProt P50570),0.415,-0.0244
ZFP36L2 (UniProt P47974),-0.847,-1.73
RBM34 (UniProt P42696),0.269,-0.596
DAP3 (UniProt P51398),-1.82,-2.7
UniProt P46821,-0.693,0.691
UniProt P43251,-2.43,-2.77
SSR1 (UniProt P43307),-0.827,-1.31
GPD2 (UniProt P43304),-1.24,-1.72
RANBP2 (UniProt P49792),-0.327,-0.237
UniProt P51161,-2.07,-0.818
UniProt P49840,-0.337,0.403
